Experimental findings from patent US20030171347A1, “Sigma receptor antagonists having anti-cocaine properties and uses thereof” (priority 1998, published 2003) are described below.

In this experiment the target is T1, σ2 sites (Rattus norvegicus, UniProt Q5U3Y7).
T1 construct: Crude P2 membranes were prepared from guinea pig brain, rat brain, or rat liver; from tissue; host or cells: rat liver (crude P2 membranes)
T1 sequence (Q5U3Y7 1-176): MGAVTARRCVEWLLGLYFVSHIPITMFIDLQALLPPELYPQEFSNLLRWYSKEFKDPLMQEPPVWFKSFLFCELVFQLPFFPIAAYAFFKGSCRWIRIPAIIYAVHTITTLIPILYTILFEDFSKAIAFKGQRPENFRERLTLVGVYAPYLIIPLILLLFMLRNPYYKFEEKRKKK
Nature of the experiment: σ2 receptor competition binding.

As for `CN1[C@@H]2CC[C@H]1C[C@@H](OC(c1ccccc1)c1ccccc1)C2` [Benztropine, reference compound], the inhibitory constant (Ki) (in general, a measure of affinity in units of concentration, obtained from inhibition or displacement) (Table 5, dopamine transporter ligands) was 31 ± 4 nM.
Regarding `OC(CCCN1CCC(O)(c2ccc(Cl)cc2)CC1)c1ccc(F)cc1` (centres unmarked) [Reduced haloperidol, reference compound], the Ki (Table 1, [3H]DTG plus dextrallorphan, rat liver, mean±SEM, minimum of two independent assays) stood at 32 ± 4 nM.
